In the supplement of paper PMC10849652:
The list shows a part of the results.

The chains behind the UniProt entries cited, without tags or fusion partners. Where a name states a change or a piece, a line headed by the entry shows the natural chain unless it says otherwise.
UniProt P17028: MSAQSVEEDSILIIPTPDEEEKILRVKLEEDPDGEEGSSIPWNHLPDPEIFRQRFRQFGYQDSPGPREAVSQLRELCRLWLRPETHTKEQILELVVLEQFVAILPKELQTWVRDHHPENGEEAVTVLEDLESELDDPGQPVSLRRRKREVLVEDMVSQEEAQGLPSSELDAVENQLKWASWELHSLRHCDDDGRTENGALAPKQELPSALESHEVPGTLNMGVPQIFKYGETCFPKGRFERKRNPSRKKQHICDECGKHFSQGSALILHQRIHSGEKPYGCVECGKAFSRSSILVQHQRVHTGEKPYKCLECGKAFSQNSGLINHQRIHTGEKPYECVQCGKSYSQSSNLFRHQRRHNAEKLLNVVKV
UniProt Q96EC8: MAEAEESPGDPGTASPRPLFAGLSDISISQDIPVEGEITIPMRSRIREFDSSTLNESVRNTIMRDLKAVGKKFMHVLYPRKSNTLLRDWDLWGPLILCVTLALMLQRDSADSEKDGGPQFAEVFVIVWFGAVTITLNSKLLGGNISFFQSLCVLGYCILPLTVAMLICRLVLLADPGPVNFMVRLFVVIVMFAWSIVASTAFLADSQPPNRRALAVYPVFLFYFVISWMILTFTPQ
UniProt Q86U90: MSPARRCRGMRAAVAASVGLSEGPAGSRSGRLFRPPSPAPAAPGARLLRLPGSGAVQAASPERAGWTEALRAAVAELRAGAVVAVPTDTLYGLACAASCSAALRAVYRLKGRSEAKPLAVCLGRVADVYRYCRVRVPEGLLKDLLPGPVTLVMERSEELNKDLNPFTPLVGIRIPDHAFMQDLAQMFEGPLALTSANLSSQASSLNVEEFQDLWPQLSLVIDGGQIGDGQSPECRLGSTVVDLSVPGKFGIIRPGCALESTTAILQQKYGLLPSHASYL
UniProt Q8IWT0: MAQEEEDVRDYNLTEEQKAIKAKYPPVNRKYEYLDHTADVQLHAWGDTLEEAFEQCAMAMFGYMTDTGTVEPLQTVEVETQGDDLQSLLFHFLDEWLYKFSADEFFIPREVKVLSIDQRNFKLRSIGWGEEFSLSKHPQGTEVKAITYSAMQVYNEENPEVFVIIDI
UniProt Q8IUH5: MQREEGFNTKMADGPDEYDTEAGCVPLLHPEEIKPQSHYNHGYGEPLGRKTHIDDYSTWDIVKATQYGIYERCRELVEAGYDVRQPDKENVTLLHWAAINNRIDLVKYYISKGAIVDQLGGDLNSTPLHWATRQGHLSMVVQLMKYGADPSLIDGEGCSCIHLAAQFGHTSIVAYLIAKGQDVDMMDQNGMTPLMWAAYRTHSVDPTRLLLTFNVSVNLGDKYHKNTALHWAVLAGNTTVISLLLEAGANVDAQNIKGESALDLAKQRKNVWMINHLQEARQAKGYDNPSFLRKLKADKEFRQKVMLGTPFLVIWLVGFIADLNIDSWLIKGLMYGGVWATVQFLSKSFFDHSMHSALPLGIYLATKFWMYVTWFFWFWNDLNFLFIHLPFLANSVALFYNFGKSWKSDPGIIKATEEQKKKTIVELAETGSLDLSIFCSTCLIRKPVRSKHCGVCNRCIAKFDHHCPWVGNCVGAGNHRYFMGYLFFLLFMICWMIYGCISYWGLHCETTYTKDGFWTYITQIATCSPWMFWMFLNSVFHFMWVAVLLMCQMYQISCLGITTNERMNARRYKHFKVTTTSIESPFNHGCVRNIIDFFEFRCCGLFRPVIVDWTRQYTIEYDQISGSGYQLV
UniProt O43670: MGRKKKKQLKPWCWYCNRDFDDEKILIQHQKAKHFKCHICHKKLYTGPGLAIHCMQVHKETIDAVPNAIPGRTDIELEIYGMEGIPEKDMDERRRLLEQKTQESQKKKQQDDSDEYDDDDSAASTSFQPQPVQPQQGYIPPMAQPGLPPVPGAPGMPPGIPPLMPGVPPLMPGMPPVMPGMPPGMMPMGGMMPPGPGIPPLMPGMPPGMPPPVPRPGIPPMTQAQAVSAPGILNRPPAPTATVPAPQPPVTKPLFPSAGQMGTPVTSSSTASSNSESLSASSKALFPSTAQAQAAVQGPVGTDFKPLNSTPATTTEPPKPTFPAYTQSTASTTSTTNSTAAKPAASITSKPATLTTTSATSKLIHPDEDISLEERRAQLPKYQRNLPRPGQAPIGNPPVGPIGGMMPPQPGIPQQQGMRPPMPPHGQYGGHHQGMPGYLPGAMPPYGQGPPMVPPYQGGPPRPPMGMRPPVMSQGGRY
UniProt O75362: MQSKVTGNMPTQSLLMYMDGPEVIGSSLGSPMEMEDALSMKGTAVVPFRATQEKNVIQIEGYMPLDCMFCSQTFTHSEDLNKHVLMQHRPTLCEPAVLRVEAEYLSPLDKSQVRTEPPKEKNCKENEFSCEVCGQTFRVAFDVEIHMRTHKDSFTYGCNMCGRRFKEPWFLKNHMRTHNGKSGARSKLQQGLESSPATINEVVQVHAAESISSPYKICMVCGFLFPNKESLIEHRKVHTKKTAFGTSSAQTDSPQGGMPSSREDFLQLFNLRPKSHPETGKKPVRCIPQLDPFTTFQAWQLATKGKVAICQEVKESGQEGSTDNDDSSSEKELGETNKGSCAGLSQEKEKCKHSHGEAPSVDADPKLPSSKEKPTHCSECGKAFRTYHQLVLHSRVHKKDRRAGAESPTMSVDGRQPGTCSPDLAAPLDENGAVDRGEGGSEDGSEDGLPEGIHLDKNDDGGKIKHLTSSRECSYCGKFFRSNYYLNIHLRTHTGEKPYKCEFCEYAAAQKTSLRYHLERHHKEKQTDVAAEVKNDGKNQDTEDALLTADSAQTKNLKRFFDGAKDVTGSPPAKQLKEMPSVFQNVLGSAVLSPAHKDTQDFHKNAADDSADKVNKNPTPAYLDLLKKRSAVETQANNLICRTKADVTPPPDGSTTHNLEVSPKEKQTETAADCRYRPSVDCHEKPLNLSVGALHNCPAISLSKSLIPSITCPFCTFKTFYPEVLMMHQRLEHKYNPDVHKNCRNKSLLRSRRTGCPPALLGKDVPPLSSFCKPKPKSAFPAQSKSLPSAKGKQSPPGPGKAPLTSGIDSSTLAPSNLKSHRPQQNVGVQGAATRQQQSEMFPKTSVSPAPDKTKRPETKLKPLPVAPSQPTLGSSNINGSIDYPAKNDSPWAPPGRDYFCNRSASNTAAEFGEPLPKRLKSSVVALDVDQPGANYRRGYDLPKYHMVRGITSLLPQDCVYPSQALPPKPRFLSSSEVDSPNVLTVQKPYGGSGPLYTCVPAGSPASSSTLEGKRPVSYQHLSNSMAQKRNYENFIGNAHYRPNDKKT
UniProt Q9BYJ9: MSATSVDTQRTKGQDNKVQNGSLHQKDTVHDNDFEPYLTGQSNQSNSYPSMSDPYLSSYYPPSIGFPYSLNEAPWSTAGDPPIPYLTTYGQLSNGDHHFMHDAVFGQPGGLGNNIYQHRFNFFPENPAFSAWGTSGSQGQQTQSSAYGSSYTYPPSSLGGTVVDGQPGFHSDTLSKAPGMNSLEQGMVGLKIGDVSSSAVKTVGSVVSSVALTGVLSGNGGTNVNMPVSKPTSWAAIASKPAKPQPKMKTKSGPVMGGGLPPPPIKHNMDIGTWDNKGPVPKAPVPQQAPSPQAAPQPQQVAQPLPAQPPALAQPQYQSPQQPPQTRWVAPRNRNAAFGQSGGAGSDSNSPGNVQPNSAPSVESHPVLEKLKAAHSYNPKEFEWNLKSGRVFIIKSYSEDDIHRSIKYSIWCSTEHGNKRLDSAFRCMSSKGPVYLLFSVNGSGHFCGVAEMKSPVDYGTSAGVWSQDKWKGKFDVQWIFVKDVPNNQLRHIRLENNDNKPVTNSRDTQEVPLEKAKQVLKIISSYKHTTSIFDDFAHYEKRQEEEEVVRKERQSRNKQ
UniProt Q9C0E2: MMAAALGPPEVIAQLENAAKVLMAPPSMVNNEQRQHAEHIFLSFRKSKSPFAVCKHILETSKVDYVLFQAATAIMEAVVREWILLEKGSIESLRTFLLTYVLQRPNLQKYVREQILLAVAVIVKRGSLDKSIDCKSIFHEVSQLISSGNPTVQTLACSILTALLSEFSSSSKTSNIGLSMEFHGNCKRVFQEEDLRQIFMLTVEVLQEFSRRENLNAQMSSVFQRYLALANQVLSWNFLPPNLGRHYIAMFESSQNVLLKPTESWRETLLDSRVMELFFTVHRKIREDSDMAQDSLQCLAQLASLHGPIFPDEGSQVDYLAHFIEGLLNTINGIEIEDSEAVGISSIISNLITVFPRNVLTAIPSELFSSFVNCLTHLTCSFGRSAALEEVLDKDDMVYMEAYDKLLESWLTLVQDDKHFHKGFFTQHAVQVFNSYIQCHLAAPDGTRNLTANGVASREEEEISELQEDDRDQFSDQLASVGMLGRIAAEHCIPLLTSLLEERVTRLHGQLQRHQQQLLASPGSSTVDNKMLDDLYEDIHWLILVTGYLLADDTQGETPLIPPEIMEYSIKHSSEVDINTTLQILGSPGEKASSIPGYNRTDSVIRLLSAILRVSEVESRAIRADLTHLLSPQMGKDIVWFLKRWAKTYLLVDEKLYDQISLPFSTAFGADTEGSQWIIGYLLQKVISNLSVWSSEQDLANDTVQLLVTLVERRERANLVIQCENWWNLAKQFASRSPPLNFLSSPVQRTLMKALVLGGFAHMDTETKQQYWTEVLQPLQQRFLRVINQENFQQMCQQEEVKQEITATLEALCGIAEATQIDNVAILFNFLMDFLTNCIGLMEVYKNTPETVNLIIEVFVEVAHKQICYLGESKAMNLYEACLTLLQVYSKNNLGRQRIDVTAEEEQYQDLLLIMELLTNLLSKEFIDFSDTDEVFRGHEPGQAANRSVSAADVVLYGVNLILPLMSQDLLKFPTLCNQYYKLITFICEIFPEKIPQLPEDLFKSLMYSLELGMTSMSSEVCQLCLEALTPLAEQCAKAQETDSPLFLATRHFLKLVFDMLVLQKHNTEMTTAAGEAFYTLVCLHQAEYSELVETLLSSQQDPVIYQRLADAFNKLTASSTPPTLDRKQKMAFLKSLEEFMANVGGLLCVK
UniProt Q8IY57: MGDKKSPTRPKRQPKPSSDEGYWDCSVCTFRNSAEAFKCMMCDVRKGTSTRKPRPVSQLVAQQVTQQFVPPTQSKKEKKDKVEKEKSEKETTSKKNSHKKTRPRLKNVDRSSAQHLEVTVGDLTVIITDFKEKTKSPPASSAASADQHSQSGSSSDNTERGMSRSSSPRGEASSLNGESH
UniProt O15498: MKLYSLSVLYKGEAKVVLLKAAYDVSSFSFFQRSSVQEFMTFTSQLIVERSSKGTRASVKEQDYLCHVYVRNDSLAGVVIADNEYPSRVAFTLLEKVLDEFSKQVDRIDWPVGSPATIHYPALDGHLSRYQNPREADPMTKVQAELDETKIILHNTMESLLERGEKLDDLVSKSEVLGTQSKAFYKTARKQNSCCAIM
UniProt Q96GY0: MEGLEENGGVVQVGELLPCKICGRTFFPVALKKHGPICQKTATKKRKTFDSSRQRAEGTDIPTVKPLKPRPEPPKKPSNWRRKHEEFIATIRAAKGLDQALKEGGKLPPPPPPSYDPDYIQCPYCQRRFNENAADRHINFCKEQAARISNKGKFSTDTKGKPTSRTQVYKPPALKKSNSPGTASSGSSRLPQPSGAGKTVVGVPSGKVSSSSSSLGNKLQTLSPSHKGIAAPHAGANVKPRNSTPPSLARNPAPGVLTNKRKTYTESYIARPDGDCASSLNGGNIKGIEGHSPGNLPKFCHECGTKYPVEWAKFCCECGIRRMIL
UniProt Q86WB0: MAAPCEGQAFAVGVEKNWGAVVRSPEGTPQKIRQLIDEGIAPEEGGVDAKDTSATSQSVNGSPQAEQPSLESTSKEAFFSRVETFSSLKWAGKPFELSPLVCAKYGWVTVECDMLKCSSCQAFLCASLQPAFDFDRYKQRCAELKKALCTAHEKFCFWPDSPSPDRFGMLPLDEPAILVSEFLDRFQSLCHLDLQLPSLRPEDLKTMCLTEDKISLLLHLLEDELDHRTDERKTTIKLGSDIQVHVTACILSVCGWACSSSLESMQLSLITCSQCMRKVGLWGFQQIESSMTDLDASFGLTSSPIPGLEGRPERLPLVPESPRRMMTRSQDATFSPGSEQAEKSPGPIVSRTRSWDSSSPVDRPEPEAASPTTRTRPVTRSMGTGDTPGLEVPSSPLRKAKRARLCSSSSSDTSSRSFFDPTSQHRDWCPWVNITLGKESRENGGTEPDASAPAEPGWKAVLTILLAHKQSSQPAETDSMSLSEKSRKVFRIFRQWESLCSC
UniProt P25490, whole entry, looked up: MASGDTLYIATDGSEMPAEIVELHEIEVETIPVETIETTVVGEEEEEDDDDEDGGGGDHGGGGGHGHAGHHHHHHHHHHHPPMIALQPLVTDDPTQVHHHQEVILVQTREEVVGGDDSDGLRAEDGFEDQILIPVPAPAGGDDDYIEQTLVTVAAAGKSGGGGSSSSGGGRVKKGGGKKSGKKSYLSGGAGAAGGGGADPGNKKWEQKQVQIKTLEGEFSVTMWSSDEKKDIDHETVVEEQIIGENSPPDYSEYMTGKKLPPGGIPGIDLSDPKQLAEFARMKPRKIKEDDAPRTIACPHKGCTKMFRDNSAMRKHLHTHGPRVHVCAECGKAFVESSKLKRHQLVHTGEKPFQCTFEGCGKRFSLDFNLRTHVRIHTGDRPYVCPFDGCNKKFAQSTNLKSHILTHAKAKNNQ

Assays:
Assay in all cases: log2 fold change, soluble protein after heating vs DMSO (PISA); higher = thermal stabilisation; K562 cells, 10 uM, 30 min; active = over 0.2 and 3.5 SD of the protein, either way, in both replicates (recomputed)
[1] = compound: Cc1ccc(NC(=O)c2ccc(CN3CC[C@H](N(C)C)C3)c(C(F)(F)F)c2)cc1Nc1nccc(-c2cncnc2)n1 [bafetinib]
Summary of the method: (§1)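 Quantification of soluble protein used TMTpro 16plex LC-MS/MS, with channel sums equalised. Samples were the supernatant after 21,000xg for 90 min of pooled aliquots from K562 cells (2×10^6 cells/mL) treated with 10 μM compound for 30 min, heated for 3 min over 48°C-58°C, and extracted in PBS with 0.5% NP-40 at 4°C. Values, from duplicates, describe thermal stability against control samples on a log2 fold-change scale.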

[2] = compound: Cc1cccc(CC(=O)N2CCc3c2ccc(-c2cn(C)c4ncnc(N)c24)c3F)n1
Summary of the method: as §1

[3] = compound: Cc1cn(-c2cc(NC(=O)c3ccc(C)c(Nc4nccc(-c5cccnc5)n4)c3)cc(C(F)(F)F)c2)cn1 [nilotinib]
Summary of the method: as §1

[4] = compound: Cc1nc(Nc2n[nH]c3c2CN(C(=O)N[C@H](CN(C)C)c2ccccc2)C3(C)C)c2sccc2n1
Summary of the method: as §1

[5] = compound: Cc1nc(Nc2ncc(C(=O)Nc3c(C)cccc3Cl)s2)cc(N2CCN(CCO)CC2)n1 [dasatinib]
Summary of the method: as §1

[6] = compound: Cc1ncc(-c2ccnc(Nc3ccc(S(C)(=O)=O)cc3)n2)n1C(C)C
Summary of the method: as §1

[7] = compound: Cn1cc(-c2ccc3c(c2)CCN3C(=O)Cc2cccc(C(F)(F)F)c2)c2c(N)ncnc21
Summary of the method: as §1

[8] = compound: Cn1cc(-c2ccc3nnc(C(F)(F)c4ccc5ncccc5c4)n3n2)cn1
Summary of the method: as §1

[9] = compound: Cn1cncc1[C@@](N)(c1ccc(Cl)cc1)c1ccc2c(c1)c(-c1cccc(Cl)c1)cc(=O)n2C [tipifarnib]
Summary of the method: as §1

[10] = compound: FC(F)(F)c1ccc(/C=C/c2nc(COc3ccc(CCCCn4ccnn4)cc3)co2)cc1 [mubritinib]
Summary of the method: as §1

Measured: log2 fold change

ZMIZ2 (UniProt Q8NF64)
inactive: [1] -0.143 | [2] -0.086 | [3] -0.217 | [4] -0.06 | [5] -0.035 | [6] 0.066 | [7] 0.05 | [8] 0.1 | [9] 0.039 | [10] 0.119

YPEL5 (UniProt P62699)
inactive: [1] 0.064 | [2] 0.198 | [3] -0.237 | [4] -0.118 | [5] -0.004 | [6] 0.036 | [7] -0.077 | [8] -0.071 | [9] 0.125 | [10] -0.202

XXYLT1 (UniProt Q8NBI6)
inactive: [1] 0.075 | [2] -0.069 | [3] 0.006 | [4] 0.08 | [5] -0.002 | [6] -0.015 | [7] -0.024 | [8] -0.008 | [9] -0.027 | [10] -0.024

YWHAG (UniProt P61981)
inactive: [1] -0.053 | [2] -0.008 | [3] 0.044 | [4] -0.012 | [5] 0.022 | [6] -0.001 | [7] -0.032 | [8] 0.03 | [9] 0.035 | [10] 0.038

ZNF24 (UniProt P17028)
inactive: [1] 0.168 | [2] -0.005 | [3] 0.066 | [4] 0.014 | [5] 0.083 | [6] -0.067 | [7] -0.035 | [8] -0.149 | [9] 0.177 | [10] -0.088

YIPF6 (UniProt Q96EC8)
inactive: [1] -0.169 | [2] -0.006 | [3] 0.063 | [4] -0.042 | [5] 0.256 | [6] -0.023 | [7] -0.035 | [8] 0.032 | [9] -0.035 | [10] 0.036

YRDC (UniProt Q86U90)
inactive: [1] -0.042 | [2] -0.009 | [3] -0.011 | [4] -0.034 | [5] 0.01 | [6] 0.03 | [7] 0.045 | [8] -0.009 | [9] -0.003 | [10] 0.035

ZBTB8OS (UniProt Q8IWT0)
inactive: [1] 0.037 | [2] 0.018 | [3] 0.112 | [4] 0.185 | [5] 0.07 | [6] 0.028 | [7] -0.006 | [8] 0.055 | [9] -0.055 | [10] 0.126

ZDHHC17 (UniProt Q8IUH5)
inactive: [1] -0.007 | [2] -0.082 | [3] -0.004 | [4] -0.012 | [5] -0.002 | [6] -0.022 | [7] 0.018 | [8] -0.029 | [9] 0.032 | [10] 0.051

ZNF207 isoform 4 (UniProt O43670)
inactive: [1] 0.014 | [2] -0.019 | [3] 0.012 | [4] -0.007 | [5] 0.005 | [6] 0.031 | [7] -0.003 | [8] -0.079 | [9] -0.028 | [10] -0.015

ZNF217 (UniProt O75362)
inactive: [1] -0.057 | [2] 0.008 | [3] -0.082 | [4] -0.055 | [5] -0.136 | [6] -0.046 | [7] 0.142 | [8] -0.01 | [9] -0.152 | [10] 0.08

YOD1 (UniProt Q5VVQ6)
inactive: [1] -0.07 | [2] 0.041 | [3] -0.061 | [4] -0.089 | [5] -0.115 | [6] -0.018 | [7] 0.023 | [8] 0.057 | [9] -0.048 | [10] 0.108

YTHDF1 (UniProt Q9BYJ9)
inactive: [1] -0.004

XPO4 (UniProt Q9C0E2)
inactive: [1] -0.077 | [2] 0.015 | [3] -0.01 | [4] 0.005 | [5] -0.016 | [6] 0.013 | [7] -0.006 | [8] -0.001 | [9] 0.003 | [10] 0.081

YTHDF2 (UniProt Q9Y5A9)
inactive: [1] -0.035 | [2] -0.034 | [3] -0.022 | [4] -0.038 | [5] -0.016 | [6] -0.019 | [7] -0.003 | [8] -0.085 | [9] 0.048 | [10] -0.044

ZNF207 isoform 2 (UniProt O43670)
inactive: [1] 0.165 | [2] 0.122 | [3] -0.104 | [4] 0.044 | [5] 0.056 | [6] -0.093 | [7] -0.292 | [8] -0.091 | [9] 0.024 | [10] -0.012

YARS (UniProt P54577)
inactive: [1] 0 | [2] 0.04 | [3] -0.074 | [4] -0.089 | [5] -0.086 | [6] 0.034 | [7] 0.003 | [8] 0.001 | [9] -0.096 | [10] 0.011

ZADH2 (UniProt Q8N4Q0)
inactive: [1] -0.08 | [2] -0.041 | [3] 0.04 | [4] -0.127 | [5] 0.035 | [6] 0.066 | [7] 0.04 | [8] 0.107 | [9] -0.053
active: [10] -0.294

ZNF225 (UniProt Q9UK10)
inactive: [1] -0.08

ZFP91 (UniProt Q96JP5)
inactive: [1] 0.191 | [2] -0.037 | [3] 0.023 | [4] -0.059 | [5] 0.009 | [6] -0.035 | [7] -0.161 | [8] -0.073 | [9] 0.149 | [10] -0.076

ZFAND5 (UniProt O76080)
inactive: [1] -0.022 | [2] -0.032 | [3] 0.098 | [4] 0.038 | [5] 0.082 | [6] -0.099 | [7] -0.02 | [8] -0.036 | [9] 0.031 | [10] 0.099

YAF2 isoform 5 (UniProt Q8IY57)
inactive: [1] 0.027 | [2] -0.252 | [3] 0.06 | [4] -0.044 | [5] 0.031 | [6] 0.033 | [7] -0.023 | [8] -0.092 | [9] -0.002 | [10] -0.099

YKT6 (UniProt O15498)
inactive: [1] -0.025 | [2] -0.011 | [3] 0.026 | [4] -0.017 | [5] 0.015 | [6] 0.006 | [7] -0.008 | [8] 0.034 | [9] -0.016 | [10] 0.024

ZC2HC1A (UniProt Q96GY0)
inactive: [1] 0.139 | [2] -0.093 | [3] 0.162 | [4] 0.041 | [5] 0.162 | [6] 0.093 | [7] -0.06 | [8] -0.06 | [9] 0.073 | [10] -0.005

ZC3HC1 (UniProt Q86WB0)
inactive: [1] 0.018 | [2] 0.029 | [3] -0.052 | [4] -0.103 | [5] -0.214 | [6] -0.01 | [7] 0.014 | [8] 0.038 | [9] -0.183 | [10] -0.049

XPNPEP3 (UniProt Q9NQH7)
inactive: [1] -0.06 | [2] 0.008 | [3] -0.034 | [4] 0.027 | [5] 0.021 | [6] -0.041 | [7] 0.092 | [8] -0.031 | [9] -0.065 | [10] 0.02

YIPF5 isoform 3 (UniProt Q969M3)
inactive: [1] -0.028 | [2] 0.06 | [3] 0.021 | [4] 0.016 | [5] 0.055 | [6] -0.03 | [7] -0.014 | [8] 0.12 | [9] -0.059 | [10] 0.012

Seven consecutive records out of the list so far, quoted:
ZBTB8OS (UniProt Q8IWT0)
inactive: [1] 0.037 | [2] 0.018 | [3] 0.112 | [4] 0.185 | [5] 0.07 | [6] 0.028 | [7] -0.006 | [8] 0.055 | [9] -0.055 | [10] 0.126

ZDHHC17 (UniProt Q8IUH5)
inactive: [1] -0.007 | [2] -0.082 | [3] -0.004 | [4] -0.012 | [5] -0.002 | [6] -0.022 | [7] 0.018 | [8] -0.029 | [9] 0.032 | [10] 0.051

ZNF207 isoform 4 (UniProt O43670)
inactive: [1] 0.014 | [2] -0.019 | [3] 0.012 | [4] -0.007 | [5] 0.005 | [6] 0.031 | [7] -0.003 | [8] -0.079 | [9] -0.028 | [10] -0.015

ZNF217 (UniProt O75362)
inactive: [1] -0.057 | [2] 0.008 | [3] -0.082 | [4] -0.055 | [5] -0.136 | [6] -0.046 | [7] 0.142 | [8] -0.01 | [9] -0.152 | [10] 0.08

YOD1 (UniProt Q5VVQ6)
inactive: [1] -0.07 | [2] 0.041 | [3] -0.061 | [4] -0.089 | [5] -0.115 | [6] -0.018 | [7] 0.023 | [8] 0.057 | [9] -0.048 | [10] 0.108

YTHDF1 (UniProt Q9BYJ9)
inactive: [1] -0.004

XPO4 (UniProt Q9C0E2)
inactive: [1] -0.077 | [2] 0.015 | [3] -0.01 | [4] 0.005 | [5] -0.016 | [6] 0.013 | [7] -0.006 | [8] -0.001 | [9] 0.003 | [10] 0.081

Following part

XPO1 (UniProt O14980)
inactive: [1] -0.003 | [2] 0.042 | [3] -0.114 | [4] -0.037 | [5] -0.154 | [6] 0.001 | [7] 0.005 | [8] -0.008 | [9] -0.159 | [10] 0.042

YTHDF3 (UniProt Q7Z739)
inactive: [1] 0.006 | [2] 0.002 | [3] -0.04 | [4] 0.001 | [5] -0.059 | [6] -0.018 | [7] 0.014 | [8] 0.027 | [9] 0.026 | [10] 0.01

YIF1B (UniProt Q5BJH7)
inactive: [1] -0.011 | [2] 0.042 | [3] 0.079 | [4] 0.031 | [5] -0.082 | [6] -0.026 | [7] -0.14 | [8] 0.045 | [9] -0.124 | [10] 0.053

YY1 (UniProt P25490)
inactive: [1] -0.044 | [2] 0.003 | [3] -0.033 | [5] -0.001 | [6] -0.207 | [7] 0.004 | [8] -0.056 | [9] 0.009 | [10] -0.055
active: [4] -0.304
